According to article PMC11020294:
No constants are given. Whether binding was seen depends on the method and setting. Binding seen in cells or lysates may run through a third protein. Some results given as binding are weak or reduced against the parent protein; the word gives no strength.

Protein sequences, listed by entry. Tags and fused reporters are not part of them.
UniProt Q9LYZ7: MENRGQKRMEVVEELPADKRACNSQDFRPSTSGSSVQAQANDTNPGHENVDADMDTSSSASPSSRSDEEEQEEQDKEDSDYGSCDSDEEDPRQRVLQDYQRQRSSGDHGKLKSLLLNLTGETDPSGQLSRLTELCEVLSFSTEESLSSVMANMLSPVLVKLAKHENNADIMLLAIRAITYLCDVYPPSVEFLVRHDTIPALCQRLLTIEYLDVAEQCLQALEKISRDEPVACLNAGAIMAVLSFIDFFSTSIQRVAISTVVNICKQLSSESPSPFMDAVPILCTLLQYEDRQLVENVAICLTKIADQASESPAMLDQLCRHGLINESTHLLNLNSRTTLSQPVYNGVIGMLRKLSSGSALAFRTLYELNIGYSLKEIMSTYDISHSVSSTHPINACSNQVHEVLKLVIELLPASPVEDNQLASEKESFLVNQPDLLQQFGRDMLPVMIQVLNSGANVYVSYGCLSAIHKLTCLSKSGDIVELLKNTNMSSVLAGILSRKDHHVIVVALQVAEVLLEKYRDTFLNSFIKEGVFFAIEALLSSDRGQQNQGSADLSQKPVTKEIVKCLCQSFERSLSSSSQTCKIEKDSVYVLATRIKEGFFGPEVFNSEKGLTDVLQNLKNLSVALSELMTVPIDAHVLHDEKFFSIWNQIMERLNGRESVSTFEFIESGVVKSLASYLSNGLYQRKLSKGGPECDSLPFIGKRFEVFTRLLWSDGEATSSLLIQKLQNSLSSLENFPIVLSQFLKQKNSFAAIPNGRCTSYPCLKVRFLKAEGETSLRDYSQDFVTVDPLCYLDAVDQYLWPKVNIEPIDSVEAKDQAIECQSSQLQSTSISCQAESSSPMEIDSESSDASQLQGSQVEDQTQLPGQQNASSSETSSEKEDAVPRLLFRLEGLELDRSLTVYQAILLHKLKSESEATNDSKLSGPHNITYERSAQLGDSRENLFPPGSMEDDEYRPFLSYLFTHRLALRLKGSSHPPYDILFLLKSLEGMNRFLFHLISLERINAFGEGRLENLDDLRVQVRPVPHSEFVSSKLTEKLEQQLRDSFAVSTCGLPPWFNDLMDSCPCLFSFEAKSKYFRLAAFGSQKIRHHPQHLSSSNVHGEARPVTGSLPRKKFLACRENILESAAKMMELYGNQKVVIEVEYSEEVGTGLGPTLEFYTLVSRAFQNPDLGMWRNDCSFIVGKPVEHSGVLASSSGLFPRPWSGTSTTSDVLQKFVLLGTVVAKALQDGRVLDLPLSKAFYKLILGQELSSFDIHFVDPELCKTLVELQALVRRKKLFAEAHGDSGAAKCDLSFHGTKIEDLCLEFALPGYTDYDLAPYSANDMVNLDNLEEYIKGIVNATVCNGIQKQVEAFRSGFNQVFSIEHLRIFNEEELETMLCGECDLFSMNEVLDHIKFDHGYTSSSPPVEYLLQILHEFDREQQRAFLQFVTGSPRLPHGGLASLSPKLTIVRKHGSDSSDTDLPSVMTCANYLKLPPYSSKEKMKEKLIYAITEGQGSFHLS

B1: MAPKKK18-nVenus (protein, UniProt Q9ZVP5 1-339)
chain: MNWTRGKTLGRGSTATVSAATCHESGETLAVKSAEFHRSEFLQREAKILSSLNSPYVIGYRGCEITREPFHNNGEATTYSLLMEYAPYGTLTDVATKNGGFIDEARVVKYTRQILLGLEYIHNSKGIAHCDIKGSNVLVGENGEAKIADFGCAKWVEPEITEPVRGTPAFMAPEAARGERQGKESDIWAVGCTVIEMVTGSQPWIGADFTDPVSVLYRVGYLGELPELPCSLTEQAKDFLGKCLKKEATERWTASQLLNHPFLVNKEPELVTGLVTNSPTSVTDQMFWRSVEEEVSEDRSSWWECHEDERIGVLSWIGHVVVESTWDLDGEDWITVRRN
B2: MAPKKK17-nVenus (protein, UniProt O80888 1-372)
chain: MEWTRGRILGRGSTATVYAAAGHNSDEILAVKSSEVHRSEFLQREAKILSSLSSPYVIGYRGSETKRESNGVVMYNLLMEYAPYGTLTDAAAKDGGRVDETRVVKYTRDILKGLEYIHSKGIVHCDVKGSNVVISEKGEAKIADFGCAKRVDPVFESPVMGTPAFMAPEVARGEKQGKESDIWAVGCTMIEMVTGSPPWTKADSREDPVSVLYRVGYSSETPELPCLLAEEAKDFLEKCLKREANERWTATQLLNHPFLTTKPDIEPVLVPGLISNSPTSVTDQTFWRSVEEEEEEETEEIQKDSRDLDRLSLWGCYSERIGRLKCVGGLDGTRCDMEGGDWIMVRARCEGTMISGSQKELIISENVLVGEL

Biological target: cCFP-UPL4 (Arabidopsis thaliana) (UniProt Q9LYZ7)
Test: split reporter; multicolor BiFC (mcBiFC) in Arabidopsis mesophyll protoplasts; nVenus and cCFP fusions transiently co-expressed, overnight; confocal microscopy; CBP20-RFP as nuclear marker

binding | Binder
binds | B1
binds | B2
